Literature values in patent US20100016256A1, “Taxane Compounds for Treating Eye Disease” (priority 2008, published 2010).

Conditions: unconjugated taxane; cited from earlier work

Structure (SMILES): CC(=O)O[C@H]1C(=O)[C@@]2(C)[C@H]([C@H](OC(=O)c3ccccc3)[C@]3(O)C[C@H](OC(=O)[C@H](O)[C@@H](NC(=O)c4ccccc4)c4ccccc4)C(C)=C1C3(C)C)[C@]1(OC(C)=O)CO[C@@H]1C[C@@H]2O [paclitaxel]
- water solubility: less than 0.004 mg/ml
